Further values from the same series stand in other lists.
Tested on: Escherichia coli
Assay: minimum inhibitory concentration (MIC)
Experimental: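 Broth microdilution MIC (Sensititre BOPO7F bovine plate, CLSI methods) of 19 antimicrobials against field isolates of P. multocida, M. haemolytica, H. somni (deep nasopharyngeal swabs) and E. coli, Enterococcus spp. (rectal swabs) from weaned dairy heifers. Incubation 16-24 h at 35 C. MIC is the lowest concentration preventing visible growth. Values with <= or > lie at the tested range limits. Trimethoprim-sulfamethoxazole is given as the trimethoprim component of a 1:19 mixture.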

Measured: minimum inhibitory concentration

CCC[C@@H]1C[C@@H](C(=O)N[C@@H]([C@H]2O[C@H](SC)[C@H](O)[C@@H](O)[C@H]2O)[C@H](C)Cl)N(C)C1 [Clindamycin]
> 16 µg/mL: isolate (source animal id): 1 | isolate (source animal id): 2 | isolate (source animal id): 3 | isolate (source animal id): 4 | isolate (source animal id): 5 | isolate (source animal id): 6 | isolate (source animal id): 7 | isolate (source animal id): 17 | isolate (source animal id): 18 | isolate (source animal id): 19 | isolate (source animal id): 20 | isolate (source animal id): 21 | isolate (source animal id): 22 | isolate (source animal id): 23 | isolate (source animal id): 24 | isolate (source animal id): 25 | isolate (source animal id): 26 | isolate (source animal id): 27 | isolate (source animal id): 28 | isolate (source animal id): 29 | isolate (source animal id): 30 | isolate (source animal id): 31 | isolate (source animal id): 32 | isolate (source animal id): 33 | isolate (source animal id): 34 | isolate (source animal id): 35 | isolate (source animal id): 36 | isolate (source animal id): 37 | isolate (source animal id): 38 | isolate (source animal id): 39 | isolate (source animal id): 40 | isolate (source animal id): 41 | isolate (source animal id): 42 | isolate (source animal id): 43 | isolate (source animal id): 44 | isolate (source animal id): 45 | isolate (source animal id): 46 | isolate (source animal id): 47 | isolate (source animal id): 48 | isolate (source animal id): 49 | isolate (source animal id): 50 | isolate (source animal id): 51 | isolate (source animal id): 52 | isolate (source animal id): 53 | isolate (source animal id): 54 | isolate (source animal id): 55 | isolate (source animal id): 56 | isolate (source animal id): 57 | isolate (source animal id): 58 | isolate (source animal id): 59 | isolate (source animal id): 60 | isolate (source animal id): 61 | isolate (source animal id): 62 | isolate (source animal id): 63 | isolate (source animal id): 64 | isolate (source animal id): 65 | isolate (source animal id): 66 | isolate (source animal id): 67 | isolate (source animal id): 68 | isolate (source animal id): 69 | isolate (source animal id): 70 | isolate (source animal id): 71 | isolate (source animal id): 72 | isolate (source animal id): 73 | isolate (source animal id): 74 | isolate (source animal id): 75 | isolate (source animal id): 76 | isolate (source animal id): 77 | isolate (source animal id): 78 | isolate (source animal id): 79 | isolate (source animal id): 80 | isolate (source animal id): 81 | isolate (source animal id): 82 | isolate (source animal id): 83 | isolate (source animal id): 84 | isolate (source animal id): 85 | isolate (source animal id): 86 | isolate (source animal id): 87 | isolate (source animal id): 88 | isolate (source animal id): 89 | isolate (source animal id): 90 | isolate (source animal id): 91 | isolate (source animal id): 92 | isolate (source animal id): 93 | isolate (source animal id): 94 | isolate (source animal id): 95 | isolate (source animal id): 96 | isolate (source animal id): 97 | isolate (source animal id): 189 | isolate (source animal id): 190 | isolate (source animal id): 191 | isolate (source animal id): 192 | isolate (source animal id): 193 | isolate (source animal id): 194 | isolate (source animal id): 195 | isolate (source animal id): 196 | isolate (source animal id): 197 | isolate (source animal id): 198 | isolate (source animal id): 199 | isolate (source animal id): 200 | isolate (source animal id): 201 | isolate (source animal id): 202 | isolate (source animal id): 203 | isolate (source animal id): 204 | isolate (source animal id): 205 | isolate (source animal id): 206 | isolate (source animal id): 207 | isolate (source animal id): 208 | isolate (source animal id): 209 | isolate (source animal id): 210 | isolate (source animal id): 211 | isolate (source animal id): 212 | isolate (source animal id): 213 | isolate (source animal id): 214 | isolate (source animal id): 215 | isolate (source animal id): 216 | isolate (source animal id): 217 | isolate (source animal id): 218 | isolate (source animal id): 219 | isolate (source animal id): 220
